By UniProt entry, the sequences of proteins in these tests, tags left out.
UniProt O60678: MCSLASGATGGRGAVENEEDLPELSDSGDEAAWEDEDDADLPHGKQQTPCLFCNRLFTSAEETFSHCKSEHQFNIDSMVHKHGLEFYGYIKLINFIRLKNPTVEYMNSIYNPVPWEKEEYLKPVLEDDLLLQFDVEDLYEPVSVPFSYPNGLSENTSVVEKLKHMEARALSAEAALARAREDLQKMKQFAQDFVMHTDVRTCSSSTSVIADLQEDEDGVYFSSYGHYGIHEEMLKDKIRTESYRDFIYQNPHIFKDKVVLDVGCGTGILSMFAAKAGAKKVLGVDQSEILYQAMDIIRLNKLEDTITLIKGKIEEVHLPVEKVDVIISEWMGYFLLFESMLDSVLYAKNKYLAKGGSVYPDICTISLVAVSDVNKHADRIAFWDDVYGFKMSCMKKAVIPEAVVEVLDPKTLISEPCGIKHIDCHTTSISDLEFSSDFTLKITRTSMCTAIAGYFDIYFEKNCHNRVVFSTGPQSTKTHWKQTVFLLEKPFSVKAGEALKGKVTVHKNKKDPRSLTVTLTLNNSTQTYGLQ
UniProt P67809: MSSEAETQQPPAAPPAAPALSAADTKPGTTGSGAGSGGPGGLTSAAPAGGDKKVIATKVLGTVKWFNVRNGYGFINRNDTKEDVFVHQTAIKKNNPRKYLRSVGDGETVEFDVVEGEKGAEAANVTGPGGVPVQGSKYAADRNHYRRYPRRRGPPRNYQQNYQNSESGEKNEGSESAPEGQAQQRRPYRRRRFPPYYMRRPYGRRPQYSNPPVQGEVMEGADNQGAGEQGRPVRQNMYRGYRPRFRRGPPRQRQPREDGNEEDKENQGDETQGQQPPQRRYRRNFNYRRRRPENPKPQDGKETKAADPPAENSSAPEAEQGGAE

In article PMC12697906:

Molecular target: PRMT3 (human (endogenous in SW480 and HEK293T)) (UniProt O60678)
Test: affinity purification with mass spectrometry; anti-PRMT3 immunoprecipitates of HEK293T cell lysates, LC-MS; combined with a public mass spectrometry dataset

- binding: binds
Substance: Y-box binding protein 1 (YBX1) (from UniProt P67809 1-324)

Results are given in words; binding and its absence hold for the method and conditions named. In cells and extracts the contact can be indirect. Here binding means that the protein was enriched with, or labelled near, the bait; the list need not be complete.
